Source: patent publication US20150005237A1, “PEPTIDIC INHIBITOR OF SIGNAL TRANSMISSION FROM G-ALPHA-S TO G-ALPHA-I-COUPLED RECEPTOR CASCADES” (UNIVERSITÄT INNSBRUCK, priority 2011, published 2015)
Results are given in words; binding and its absence hold for the method and conditions named. Some entries that bind do so weakly or less than the wild type.

Protein sequences, listed by entry. Tags and fused reporters are not part of them.
UniProt P08753: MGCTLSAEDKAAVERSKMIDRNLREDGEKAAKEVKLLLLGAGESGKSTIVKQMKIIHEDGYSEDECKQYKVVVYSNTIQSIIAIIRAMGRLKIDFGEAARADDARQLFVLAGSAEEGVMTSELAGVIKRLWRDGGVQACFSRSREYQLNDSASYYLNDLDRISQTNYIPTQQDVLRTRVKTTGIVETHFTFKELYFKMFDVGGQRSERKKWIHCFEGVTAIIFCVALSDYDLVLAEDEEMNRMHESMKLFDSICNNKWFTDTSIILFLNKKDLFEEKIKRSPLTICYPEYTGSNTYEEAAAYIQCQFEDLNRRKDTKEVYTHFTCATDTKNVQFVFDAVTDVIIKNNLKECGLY

Key:
[1] = target: GST-Gαi3 (fusion of full-length Gαi3 and gluthatione S-transferase) (rat) (UniProt P08753); test: dot blot of spotted peptides overlaid with recombinant GST-Gαi3
[2] = target: GST-Gαi3 (fusion of full-length Gαi3 and gluthatione S-transferase) (rat) (UniProt P08753); test: dot blot of spotted peptides overlaid with recombinant GST-Gαi3, densitometry

B1: spotted peptide, mutant functional variant of the Reggai sequence (SEQ ID No. 8) (peptide)
peptide: QGASADSFFIVESGE
[1]
  binding: binds
[2]
  binding: binds

B2: spotted peptide containing the Reggai sequence of RIIβ (SEQ ID No. 7) (peptide)
peptide: QGDSADSFFIVESGE
[1]
  binding: binds
